Whole data set: some 33,000 sequences, median “E-score (-0.5 to 0.5)” near -0.0014, cut for the highest 2% near 0.25. This is one part of the list.
target: T1, Cad1 (UniProt P24813); assay: PBM E-score (8-mer binding enrichment) (E-score (-0.5 to 0.5)); higher = stronger / more preferred TF binding; conditions: protein concentration: 100 nM; construct: GST-full length
T1 sequence: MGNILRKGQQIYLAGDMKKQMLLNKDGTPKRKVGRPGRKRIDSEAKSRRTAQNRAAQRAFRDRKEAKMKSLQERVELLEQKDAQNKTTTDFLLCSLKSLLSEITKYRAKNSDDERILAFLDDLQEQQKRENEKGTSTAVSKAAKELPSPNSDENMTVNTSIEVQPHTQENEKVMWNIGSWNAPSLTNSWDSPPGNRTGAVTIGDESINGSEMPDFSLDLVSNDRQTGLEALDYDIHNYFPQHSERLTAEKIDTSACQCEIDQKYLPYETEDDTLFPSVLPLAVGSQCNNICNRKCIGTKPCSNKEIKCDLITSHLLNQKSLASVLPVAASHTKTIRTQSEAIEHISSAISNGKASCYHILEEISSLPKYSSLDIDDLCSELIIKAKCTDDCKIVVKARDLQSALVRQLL
Method in brief: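 Detection of bound protein used fluorescent anti-GST, with scans normalised by masliner. The proteins were GST-tagged yeast transcription factors applied at about 100-200 nM to universal all-10-mer Agilent arrays made double-stranded by primer extension. Each ungapped eight-base word, pooled with its reverse complement, was scored with an E-score from the Universal PBM Analysis Suite.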

| Sequence | PBM E-score |
| --- | --- |
| CTCGCAAG | 0.046 |
| AGTATTAA | 0.0712 |
| ATGGGGCA | -0.0999 |
| CAACTGAA | -0.15 |
| GGAGATCA | -0.0337 |
| ACCCAGGC | -0.0109 |
| CCGCCGAA | -0.0118 |
| CGCGGGAA | 0.18 |
| GTGAGTTA | 0.00781 |
| AGTGATGA | -0.149 |
| CGATATCC | 0.141 |
| AATGAGCG | 0.198 |
| GCTTAAAA | 0.0591 |
| CATTTCCA | 0.146 |
| ATACTGCC | 0.0241 |
| AATTGGTG | 0.216 |
| GCGTCCAC | 0.00433 |
| CGTATAAC | 0.133 |
| ACGGCGTC | -0.124 |
| GTCAGGAA | 0.0353 |
| CAGTGTCC | -0.0177 |
| CCACCTTA | -0.0703 |
| ATAGCTTG | 0.0727 |
| ACGCTGAT | 0.166 |
| AACCGGCT | -0.138 |

| Sequence | PBM E-score |
| --- | --- |
| GTAAAATA | 0.207 |
| ATTGAAGG | -0.138 |
| CCTGTGAC | -0.132 |
| AAGCTGAC | 0.242 |
| CCGGCATC | -0.11 |
| CAAACGGC | -0.207 |
| AATAGCGG | -0.0047 |
| GAGTATTA | 0.0374 |
| CCTTCGTC | -0.195 |
| CTCCGCCC | -0.108 |
| GCAGAGTA | -0.0109 |
| GAGATTGC | -0.088 |
| AGCGTAGC | -0.0175 |
| AAAAGGAC | -0.117 |
| AACCACTG | 0.0784 |
| ACCGACCC | -0.152 |
| GAGCCCGA | 0.0741 |
| ACCGCAGT | -0.0705 |
| AGCCCGCA | 0.0417 |
| ACCTGAGA | -0.0465 |
| CCCTCTAC | -0.322 |
| AATGATTC | 0.0808 |
| AAATGCCG | 0.124 |
| TCGGAGCA | -0.135 |
| CCGAACCA | -0.187 |

2 entries from above, reformatted:
Sequence	PBM E-score
CAAACGGC	-0.207
AATAGCGG	-0.0047

The list continues:

| Sequence | PBM E-score |
| --- | --- |
| AGGCGACT | -0.131 |
| CCTAAGGA | -0.0179 |
| AGAAAGCG | -0.0665 |
| ACTTCGGA | 0.136 |
| CCCTATGC | -0.0516 |
| CTTACTCC | 0.0513 |
| ATGGGTAA | 0.0692 |
| GTGGCAAC | 0.0625 |
| ACTCCCCA | -0.159 |
| AGTGTCTA | 0.145 |
| CCGCCCCA | 0.113 |
| CGTAATCA | 0.336 |
| ACTTACAA | 0.278 |
| AAGAGTAA | 0.068 |
| ATTCCTCG | 0.113 |
| AACCGTAT | -0.178 |
| CTATAGTC | -0.18 |
| CAACACCG | -0.0149 |
| CAGAGTCA | -0.129 |
| TATTCCCA | 0.0149 |
| AGATGGTC | -0.169 |
| TATAGGGA | -0.0721 |
| CGGATCCG | 0.0808 |
| GGCCCTAA | 0.0115 |
| CTAGTCAG | 0.0283 |

| Sequence | PBM E-score |
| --- | --- |
| GCCGCGGA | -0.00234 |
| CGGGCAGC | -0.0301 |
| CACCCGCG | 0.126 |
| AGCCGTTA | 0.114 |
| GCGGGTCA | 0.115 |
| GAGACTAA | 0.00477 |
| ACATACCT | -0.146 |
| GCGATTCC | 0.0222 |
| GTACTGAC | -0.134 |
| AAATTTGA | 0.325 |
| CTTACAAG | 0.0333 |
| AACGCTCT | -0.0819 |
| AGGAGGTC | -0.228 |
| CAGCCCAG | -0.246 |
| CCCCGTTA | -0.157 |
| CGATCTTC | 0.00674 |
| AACTACGG | -0.0862 |
| AACGGAAA | 0.219 |
| CAGGCCCG | -0.236 |
| ACATACTG | 0.0301 |
| CACTCACG | -0.0909 |
| ATAATACG | 0.186 |
| CGGTGCTC | -0.0528 |
| GTCCAGCA | -0.0579 |
| AGTCTCGA | 0.0451 |

| Sequence | PBM E-score |
| --- | --- |
| CTTCTCCC | -0.324 |
| AGAAATCG | -0.00121 |
| GACTCATA | -0.0185 |
| CGGCGCTC | 0.0522 |
| TCGCGTAA | 0.19 |
| CTGATACC | -0.15 |
| AAAGATAG | 0.00786 |
| CTAATGAA | 0.146 |
| AACGCATC | 0.0105 |
| AAGTCTCA | -0.181 |
| ACTAACAC | 0.184 |
| AGTTAAGC | 0.0381 |
| CGCGAAAA | 0.246 |
| CTTGGAGA | -0.0247 |
| CCTAATCG | 0.168 |
| CTTTTGAA | 0.0525 |
| ACGGAAGA | 7e-05 |
| ATACACCG | 0.13 |
| ATATTATA | 0.164 |
| ATTTAGAA | -0.0536 |
| CCGTACCG | -0.151 |
| CGGCCTGA | -0.214 |
| AAGCGGCC | -0.164 |
| CTAGACCA | 0.00762 |
| CTGGTCAA | -0.0689 |

| Sequence | PBM E-score |
| --- | --- |
| CACGAGCG | -0.0893 |
| GGACCCAC | -0.0599 |
| CAGTGTAA | 0.081 |
| GGCACAAA | -0.169 |
| GACAAAGA | 0.276 |
| CTACGACC | -0.156 |
| AGCTCCGG | -0.115 |
| CACTCCTC | -0.146 |
| GAGGATGA | 0.0761 |
| AGACCATC | -0.0573 |
| CAGGTCTA | 0.0481 |
| AGGAGCTC | -0.165 |
| AACCATTA | 0.166 |
| CCGGTCTA | -0.244 |
| GGAATAGA | -0.00051 |
| CAGAGAAG | -0.187 |
| CGACCGAA | -0.105 |
| GAAGTTGA | -0.00863 |
| AAGGGTAT | 0.0311 |
| AGAGTGCG | -0.0274 |
| AGATCTAA | 0.138 |
| GCCCGTAA | 0.0144 |
| GTTATTTA | 0.153 |
| AAAGCTGA | 0.0368 |
| AGCTTAGC | 0.102 |

| Sequence | PBM E-score |
| --- | --- |
| AGGTTTCC | -0.0162 |
| CAATCGAC | -0.00241 |
| ACGAGAGT | -0.122 |
| AGCGTTAG | 0.0392 |
| GTGAAAAA | 0.121 |
| CCCTTAGG | -0.13 |
| AGAGGAAC | -0.0542 |
| CTCCTCCA | -0.143 |
| ATGAATAG | 0.0469 |
| CAGGCGTC | -0.0605 |
| ACTGACAG | 0.0822 |
| ATGAACAG | -0.0207 |
| ATGCCGTG | 0.0808 |
| AAGCTAGC | 0.0693 |
| AGGCTGAC | 0.145 |
| CCATAATC | 0.0845 |
| ATGGGGAC | -0.0612 |
| ACCTCTCA | -0.0819 |
| CTACTAAC | 0.109 |
| GCCGCCGC | -0.0983 |
| ATGCCGAC | 0.0141 |
| ACTACCCG | -0.0883 |

Copied from the list.
In PBM E-score, CAGCCCAG is entered as -0.246
In PBM E-score, GGAGATCA is entered as -0.0337
In PBM E-score, ACCTGAGA is entered as -0.0465
In PBM E-score, ACATACTG is entered as 0.0301

From the supplement of paper PMC3334620
